Cell number change and AC50 data for 41 molecules are collected here from PubChem BioAssay AID2685 (National Center for Advancing Translational Sciences (NCATS), 2010).

A short description of this experiment: qHTS Assay for Lipid Storage Modulators in Drosophila S3 Cells.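 For Cell number change: cells counted by Cell Tracker Red CMTPX staining in the red channel.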 To be noted: BODIPY lipid droplet fluorescence, 18-24 h; for cell number change: measured here: cell count max response, cells fed with added oleic acid. The gist of the method: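 Laser-scanning cytometry quantifies lipid droplet accumulation (500–530 nm total intensity; droplet/cell object ratio) in oleic acid-fed (400 uM added) Drosophila S3 cells treated with a concentration series. 20 uM Triacsin C defined 100% inhibition.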

The mark [1] stands for this setting: measured here: cell number channel AC50, cells fed with added oleic acid.
Where [2] appears, read: measured here: lipid fluorescence (Fed channel) AC50, cells fed with added oleic acid.

Molecules are shown by their SMILES. The list shows a part of the results. The main result of the screen is listed elsewhere. These columns were measured beside it and carry no call. Most of these compounds were active or inconclusive in the main read-out, so they are no random draw. The note in brackets gives the kind of curve behind each potency; many fits are weak.

With `CC(/C=C/c1ccccc1)=N\NC(=O)CNC(=O)c1ccccc1Cl`, the cell number change amounted to 31.9%. Further, the AC50 under setting [1] is 0.651 µM [rising, full curve, poor fit]. Further, under setting [2], the concentration at half-maximal activity (AC50) is 1.03 µM [rising, full curve].

Consider `O=C(Nc1ccccc1-c1ccccc1)c1ccc(Cl)c([N+](=O)[O-])c1`, for which the cell number change is -0.746%. The AC50 under setting [2] was 0.00411 µM [falling, full curve, poor fit].

With `COC(=O)c1ccc(Cn2cnc3c(cnn3-c3ccc(F)cc3)c2=O)o1`, the cell number change stood at 3.28%. The AC50 under setting [2] was 6.51 µM [falling, single point].

Consider `Cc1[nH]c2ccccc2c1C(=O)C(=O)N1CCN(C)CC1`, for which the cell number change is -64.9%. Moreover, the AC50 under setting [1] was 29.1 µM [falling, single point].

For the molecule `CC(C)N(Cc1nc(-c2ccc(Cl)cc2)no1)C(=O)CCCN1C(=O)c2ccccc2C1=O`, the cell number change is -32.8%. Moreover, under setting [1], the AC50 is 2.91 µM [falling, partial curve].

Turning to `CC(=O)N1CCCc2ccc(NS(=O)(=O)c3ccccc3)cc21`, the cell number change was determined as 15.2%. For the same molecule, the AC50 under setting [2] is 0.731 µM [falling, single point].

As for `COc1cccc(/C=C/c2ccc3cccc(O)c3n2)c1OC`, the cell number change is -11.3%. Further, the AC50 under setting [2] is 29.1 µM [falling, single point].

In the case of `OCC1(Cc2ccccc2)CCN(Cc2ccc(-c3ccco3)cc2)CC1`, the cell number change is -2.9%.

As for `CCOC(=O)c1cnc(SC)nc1Oc1cccc(NS(=O)(=O)c2ccc(F)cc2)c1`, the cell number change was -2.76%. Moreover, under setting [2], the AC50 is 0.184 µM [rising, full curve, poor fit].

In the case of `Cc1cc(NS(C)(=O)=O)c(=O)n(Cc2cccc(F)c2)c1`, the cell number change turned out to be 5.18%. Besides, the AC50 under setting [2] is 2.91 µM [rising, single point].

Regarding `CC/C(=N\NC(=O)C1CCCC1)c1cccc(Br)c1`, the cell number change is -1.45%. Also, the AC50 under setting [2] was 20.6 µM [rising, single point].

As for `Cc1ccc(S(=O)(=O)Nc2cccc(S(=O)(=O)N3CCCC3)c2)cc1C`, the concentration at half-maximal activity (AC50) under setting [2] is 6.51 µM [rising, single point].

As to `COc1ccc(-c2nn(-c3ccccc3)cc2/C=C2/SC(=S)N(CCCC(=O)O)C2=O)c(C)c1`, the cell number change was -19.6%.

As for `O=C(Cc1ccc(Cl)cc1)N/N=C/c1cccc(O)c1`, under setting [2], the AC50 is 0.731 µM [rising, single point].

On to `Fc1ccc(-c2nnc(CSc3nnc(-c4ccc5c(c4)OCO5)o3)o2)cc1`, for which the cell number change was -10.2%. For the same molecule, the AC50 under setting [2] is 0.731 µM [rising, single point].

Turning to `COc1ccc(CC(=O)N(C)CC(=O)Nc2ccccc2SC)cc1`, the cell number change is 22.2%. Further, under setting [2], the AC50 was 29.1 µM [rising, single point].

As for `CC(NS(=O)(=O)c1ccccc1)C(=O)Nc1ccc2c(c1)OCCO2` (stereo unspecified), the cell number change was -24.7%. Moreover, under setting [2], the concentration at half-maximal activity (AC50) was 29.1 µM [falling, single point].

`COc1ccc(C)cc1NC(=O)CSc1nnc(-c2ccco2)n1N`: the cell number change is -22.3%.

With `O=C(CN1C(=O)NC2(CCCC2)C1=O)OCCOc1cccc(Cl)c1`, the cell number change was found to be 29.7%.

As to `CC(OC(=O)c1ncc(Cl)c(Cl)c1Cl)C(=O)NC1CCCCC1C` (stereo unspecified), the cell number change was -2.5%.

In the case of `CCN1CCN(C(=O)c2ccc(Sc3ccccc3Cl)c([N+](=O)[O-])c2)CC1`, the cell number change worked out at 3.54%.

Regarding `CSc1ccc(/C=C(\NC(=O)c2ccccc2)C(=O)NN)cc1`, the cell number change was 28.5%. Further, the AC50 under setting [2] is 29.1 µM [rising, single point].

On to `COc1ccc(S(=O)(=O)N(C)C)cc1NC(=O)CSc1ncccn1`, for which the cell number change turned out to be 22.9%. Besides, the AC50 under setting [1] was 3.66 µM [rising, full curve, poor fit]. Moreover, the AC50 under setting [2] is 1.3 µM [rising, full curve].

On to `CC(=O)Nc1ccc(S(=O)(=O)N2CCN(CCc3ccccc3)CC2)cc1`, for which the cell number change was -5.29%. The half-maximal activity concentration (AC50) under setting [2] was 29.1 µM [falling, single point].

Consider `Cc1ccc(NC(=O)CC2NCCN(Cc3ccccc3)C2=O)cc1` (stereo unspecified), for which the cell number change is -24%. Also, the AC50 under setting [1] was 4.11 µM [falling, full curve, poor fit]. For the same molecule, the AC50 under setting [2] was 4.61 µM [falling, full curve].

For the molecule `O=C(CCS(=O)(=O)c1ccc(F)cc1)Nc1ccc(N2CCN(Cc3ccccc3)CC2)cc1`, the cell number change was -6.32%. Moreover, under setting [2], the AC50 is 0.092 µM [rising, full curve, poor fit].

Take `Cc1nc(N2CCN(c3ccccn3)CC2)c2c(C)c(C(=O)N3CCN(c4ccccc4F)CC3)sc2n1`: the cell number change was found to be 97.4%. Besides, under setting [1], the AC50 is 16.4 µM [rising, partial curve]. Also, under setting [2], the AC50 was 29.1 µM [falling, single point].

For the molecule `Cc1ccccc1N1CCN(S(=O)(=O)CC23CCC(CC2=O)C3(C)C)CC1` (stereo unspecified), the cell number change is -7.46%.

For the molecule `Cn1nnc(NC(=O)c2ccc(Br)o2)n1`, the cell number change was -4.13%. Further, the AC50 under setting [2] is 4.11 µM [falling, partial curve, poor fit].

In the case of `CC1CC1c1ccc(/C=C(\C#N)C(=O)Nc2ccc(Cl)cc2Cl)o1` (stereo unspecified), the cell number change is -3.81%. In addition, the AC50 under setting [1] was 0.103 µM [falling, full curve, poor fit].

Regarding `COC(=O)c1ccc(CN2C(=O)NC3(CCC(C)CC3)C2=O)o1` (stereo unspecified), the cell number change was -1.22%.

Turning to `CC(Sc1nnc(-c2ccncc2)n1C)C(=O)NCC1CCCO1` (stereo unspecified), the cell number change is -3.61%.

For `Cc1cc(C)c(S(=O)(=O)N2CCOC2CNC(=O)C(=O)NCCc2ccc(S(N)(=O)=O)cc2)c(C)c1` (stereo unspecified), the cell number change was 13%. For the same molecule, the concentration at half-maximal activity (AC50) under setting [1] is 6.51 µM [rising, single point].

With `CN(CCCC(=O)N1CCCC(C(N)=O)C1)S(=O)(=O)c1ccc(F)cc1` (stereo unspecified), the cell number change was -6.58%.

In the case of `Cc1nc(NC(=O)c2cc3c(s2)CCCCC3)sc1C(=O)N(C)C`, the cell number change amounted to 0.0835%. Besides, the AC50 under setting [2] is 0.731 µM [falling, single point].

Regarding `Cc1ccc(S(=O)(=O)N/N=C/c2c(C)nn(-c3ccccc3)c2C)cc1`, the AC50 under setting [2] is 6.51 µM [rising, single point].

`CCSC1=C(C#N)C(c2ccccc2C)CC(=O)N1` (stereo unspecified): the cell number change is 16.6%.

`COC(=O)c1cccc(NS(=O)(=O)c2ccc(OC)c(OC)c2)c1C`: the cell number change is -48.5%.

With `C/C(=N\NC(=O)CSc1nc(C)cc(C)n1)c1ccc([N+](=O)[O-])cc1`, the concentration at half-maximal activity (AC50) under setting [2] was 0.731 µM [falling, single point].

Regarding `CC(C)(C)C1(C)OC(=O)C(=Cc2ccc(OCC(=O)Nc3ccccc3)cc2)C(=O)O1` (stereo unspecified), the cell number change is -13.1%. In addition, the AC50 under setting [2] is 0.461 µM [falling, full curve, poor fit].

As for `CCOC(=O)NC(=O)CSc1nc2ccccc2[nH]1`, the cell number change is -39.3%. For the same molecule, under setting [1], the AC50 was 4.61 µM [falling, single point]. For the same molecule, the AC50 under setting [2] was 6.51 µM [falling, single point].
